# Measurements taken from paper PMC9071465.
# Substitutions are numbered along the chain they refer to. For at least one entry, the source does not settle the construct or the ends of the probe. For part of these data: A weaker result is weaker than the reference pair of the same experiment. For part of these data: At least one verdict rests on a figure or table, not on a statement of the authors. Protein sequences can lack the tags named with them.
# Legend:
# Assay in all cases: fluorescence anisotropy
# [1] = biological target: T1, At-HIGLE1-183 (Arabidopsis thaliana) (UniProt Q682H4); details: 2.5 mM Ca2+; 20 mM HEPES pH 7.5, 2.5 mM CaCl2, 100 mM NaCl, 0.5 mM DTT, 2 mM EDTA, 0.1 mg/ml BSA, 25 C; 25 nM DNA (15 nM labeled), protein 0-600 nM; recombinant protein; residues 1-183; protein details: N-terminal 6xHis-SUMO, cleaved off; label: 5' 6-FAM on F0-1; folded or branched DNA
# T1 sequence (looked up): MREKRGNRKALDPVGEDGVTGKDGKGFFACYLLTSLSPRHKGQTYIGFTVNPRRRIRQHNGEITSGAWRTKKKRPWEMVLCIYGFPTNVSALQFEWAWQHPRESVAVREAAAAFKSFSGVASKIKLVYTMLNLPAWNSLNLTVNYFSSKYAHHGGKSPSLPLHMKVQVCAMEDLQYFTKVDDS
# [2] = biological target: T2, At-HIGLE (full length) (Arabidopsis thaliana) (UniProt Q682H4); details: 2.5 mM Ca2+; 20 mM HEPES pH 7.5, 2.5 mM CaCl2, 100 mM NaCl, 0.5 mM DTT, 2 mM EDTA, 0.1 mg/ml BSA, 25 C; 25 nM DNA (15 nM labeled), protein 0-600 nM; recombinant protein; residues 1-368; protein details: N-terminal 6xHis-SUMO, cleaved off; label: 5' 6-FAM on F0-1; folded or branched DNA
# T2 sequence (looked up): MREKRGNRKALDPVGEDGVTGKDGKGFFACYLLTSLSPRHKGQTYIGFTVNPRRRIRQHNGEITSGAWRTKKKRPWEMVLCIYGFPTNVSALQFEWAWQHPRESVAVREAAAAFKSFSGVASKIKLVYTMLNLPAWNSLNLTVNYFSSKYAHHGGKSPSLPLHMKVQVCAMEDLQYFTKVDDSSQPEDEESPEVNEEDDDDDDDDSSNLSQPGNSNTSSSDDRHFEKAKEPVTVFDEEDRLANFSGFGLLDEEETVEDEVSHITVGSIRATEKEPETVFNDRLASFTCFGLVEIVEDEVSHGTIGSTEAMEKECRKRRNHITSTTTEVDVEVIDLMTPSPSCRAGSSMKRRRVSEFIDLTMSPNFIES
# [3] = biological target: T3, At-HIGLE H100A (Arabidopsis thaliana) (UniProt Q682H4); details: 2.5 mM Ca2+; 20 mM HEPES pH 7.5, 2.5 mM CaCl2, 100 mM NaCl, 0.5 mM DTT, 2 mM EDTA, 0.1 mg/ml BSA, 25 C; 25 nM DNA (15 nM labeled), protein 0-600 nM; recombinant protein; residues 1-368; protein details: N-terminal 6xHis-SUMO, cleaved off; label: 5' 6-FAM on F0-1; folded or branched DNA
# T3 sequence (looked up): T2 sequence (looked up) with H100A
# [4] = biological target: T4, At-HIGLE K115A (Arabidopsis thaliana) (UniProt Q682H4); details: 2.5 mM Ca2+; 20 mM HEPES pH 7.5, 2.5 mM CaCl2, 100 mM NaCl, 0.5 mM DTT, 2 mM EDTA, 0.1 mg/ml BSA, 25 C; 25 nM DNA (15 nM labeled), protein 0-600 nM; recombinant protein; residues 1-368; protein details: N-terminal 6xHis-SUMO, cleaved off; label: 5' 6-FAM on F0-1; folded or branched DNA
# T4 sequence (looked up): T2 sequence (looked up) with K115A
# [5] = biological target: T5, At-HIGLE R39A (Arabidopsis thaliana) (UniProt Q682H4); details: 2.5 mM Ca2+; 20 mM HEPES pH 7.5, 2.5 mM CaCl2, 100 mM NaCl, 0.5 mM DTT, 2 mM EDTA, 0.1 mg/ml BSA, 25 C; 25 nM DNA (15 nM labeled), protein 0-600 nM; recombinant protein; residues 1-368; protein details: N-terminal 6xHis-SUMO, cleaved off; label: 5' 6-FAM on F0-1; folded or branched DNA
# T5 sequence (looked up): T2 sequence (looked up) with R39A
# [6] = biological target: T6, At-HIGLE R54A (Arabidopsis thaliana) (UniProt Q682H4); details: 2.5 mM Ca2+; 20 mM HEPES pH 7.5, 2.5 mM CaCl2, 100 mM NaCl, 0.5 mM DTT, 2 mM EDTA, 0.1 mg/ml BSA, 25 C; 25 nM DNA (15 nM labeled), protein 0-600 nM; recombinant protein; residues 1-368; protein details: N-terminal 6xHis-SUMO, cleaved off; label: 5' 6-FAM on F0-1; folded or branched DNA
# T6 sequence (looked up): T2 sequence (looked up) with R54A
# [7] = biological target: T7, At-HIGLE R57A (Arabidopsis thaliana) (UniProt Q682H4); details: 2.5 mM Ca2+; 20 mM HEPES pH 7.5, 2.5 mM CaCl2, 100 mM NaCl, 0.5 mM DTT, 2 mM EDTA, 0.1 mg/ml BSA, 25 C; 25 nM DNA (15 nM labeled), protein 0-600 nM; recombinant protein; residues 1-368; protein details: N-terminal 6xHis-SUMO, cleaved off; label: 5' 6-FAM on F0-1; folded or branched DNA
# T7 sequence (looked up): T2 sequence (looked up) with R57A
# [8] = biological target: T8, At-HIGLE W96A (Arabidopsis thaliana) (UniProt Q682H4); details: 2.5 mM Ca2+; 20 mM HEPES pH 7.5, 2.5 mM CaCl2, 100 mM NaCl, 0.5 mM DTT, 2 mM EDTA, 0.1 mg/ml BSA, 25 C; 25 nM DNA (15 nM labeled), protein 0-600 nM; recombinant protein; residues 1-368; protein details: N-terminal 6xHis-SUMO, cleaved off; label: 5' 6-FAM on F0-1; folded or branched DNA
# T8 sequence (looked up): T2 sequence (looked up) with W96A
sequence,measurement,setting,value
ACCAGTGCCTTGCTAGGACATCTTTGCCCA / CTAGACAGCTCCATGTAGCAAGGCACTGGT / TGGGCAAAGATGTCC [5' flap],binding result,[1],binds
ACCAGTGCCTTGCTAGGACATCTTTGCCCA / CTAGACAGCTCCATGTAGCAAGGCACTGGT / TGGGCAAAGATGTCC / CATGGAGCTGTCTAG [Replication fork (RF)],binding result,[1],binds
ACCAGTGCCTTGCTAGGACATCTTTGCCCA / CTAGACAGCTCCATGTAGCAAGGCACTGGT [Splayed arm (SA)],binding result,[1],binds
ACCAGTGCCTTGCTAGGACATCTTTGCCCA / TGGGCAAAGATGTCCATCTGTTGTAATCGT / ACGATTACAACAGATCATGGAGCTGTCTAG / CTAGACAGCTCCATGTAGCAAGGCACTGGT [Holliday junction (HJ)],binding result,[2],binds
same,binding result,[3],binds more weakly
same,binding result,[4],binds more weakly
same,binding result,[5],binds more weakly
same,binding result,[6],binds more weakly
same,binding result,[7],binds more weakly
same,binding result,[8],binds more weakly
same,binding result,[1],binds
ACCAGTGCCTTGCTAGGACATCTTTGCCCA / CTAGACAGCTCCATGTAGCAAGGCACTGGT / CATGGAGCTGTCTAG [3' flap],binding result,[1],binds
